# The list is a part of this screen's results and no random one: it is rich in T/C values a quarter to a half above the control, in often repeated tests (any T/C) and in doses without a T/C. Further doses and runs are listed elsewhere. T/C: endpoint of the treated group in % of that of the vehicle group. Some entries give survivors of the animals treated and no T/C: the source files T/C as zero there, which appears to mark a toxic dose or a test without result, not a measured value. Some survivor counts are full or nearly so, which does not show that the dose was tolerated: survival well below the control is almost never listed, so the zero probably covers shortened survival too. Survivors were counted at the toxicity check, usually on the fifth day, unless a day is given; later deaths do not show. Schedule codes are those of the source, read here as Q, the interval in days (D) or hours (H), X, the number of doses. Some entries were tested several times; the results are listed from low to high.
# System: L1210 leukemia ip in BDF1 mice, survival T/C
# Experiment: NCI In Vivo Anticancer Drug Screen. Data for tumor model L1210 Leukemia (intraperitoneal) in B6D2F1 (BDF1) mice
# Conditions: T/C endpoint: mean survival time, higher T/C = longer survival
# [1] = dose: 200.0 mg/kg/injection, schedule: Q01DX001 (ip), vehicle: saline
# [2] = dose: 400.0 mg/kg/injection, schedule: Q01DX001 (ip), vehicle: saline
# [3] = dose: 25.0 mg/kg/injection, schedule: Q04DX002 (ip), vehicle: saline with Tween-80
# [4] = dose: 100.0 mg/kg/injection, schedule: Q04DX002 (ip), vehicle: saline with Tween-80
compound,measurement,setting,value
CCC[CH2][Sn]([CH2]CCC)([O][Sn]([CH2]CCC)([CH2]CCC)[S]C#N)[S]C#N,survivor count,"dose: 25.0 mg/kg/injection, schedule: Q01DX009 (ip), vehicle: saline with Tween-80",0 of 3
same,survivor count,"dose: 50.0 mg/kg/injection, schedule: Q01DX009 (ip), vehicle: saline with Tween-80",0 of 3
same,survivor count,"dose: 100.0 mg/kg/injection, schedule: Q01DX009 (ip), vehicle: saline with Tween-80",0 of 3 and 0 of 6
same,survivor count,"dose: 200.0 mg/kg/injection, schedule: Q01DX009 (ip), vehicle: saline with Tween-80",0 of 6
same,survivor count,"dose: 400.0 mg/kg/injection, schedule: Q01DX009 (ip), vehicle: saline with Tween-80",0 of 6
O=C1C=CC(=O)c2cc(Cl)c(Cl)cc21,survivor count,"dose: 12.5 mg/kg/injection, schedule: Q01DX009 (ip), vehicle: saline",4 of 6
same,survivor count,"dose: 25.0 mg/kg/injection, schedule: Q04DX003 (ip), vehicle: saline",1 of 6
same,survivor count,"dose: 50.0 mg/kg/injection, schedule: Q01DX001 (ip), vehicle: saline",0 of 6
same,survivor count,"dose: 100.0 mg/kg/injection, schedule: Q01DX001 (ip), vehicle: saline",0 of 6
same,survivor count,[1],0 of 6
same,survivor count,[2],0 of 6
CCNC(=O)NCc1ccc(Cl)c(Cl)c1,survivor count,"dose: 400.0 mg/kg/injection, schedule: Q04DX002 (ip), vehicle: Klucel (hydroxypropylcellulose) (HPC)",1 of 3
O=C(O)C(Cc1ccccc1)C(=O)O.[NH2-].[NH2-].[Pt+2],survivor count,"dose: 400.0 mg/kg/injection, schedule: Q04DX003 (ip), vehicle: Klucel (hydroxypropylcellulose) (HPC)",6 of 10
CCCC/C=C/C#N,survivor count,"dose: 300.0 mg/kg/injection, schedule: Q01DX009 (ip), vehicle: saline",0 of 6
O=C1C2C3CCC(O3)C2C(=O)N1CC#CCCl (stereo not drawn),survivor count,[3],0 of 3
same,survivor count,[4],0 of 3
same,survivor count,"dose: 200.0 mg/kg/injection, schedule: Q04DX002 (ip), vehicle: saline with Tween-80",0 of 3
same,survivor count,"dose: 400.0 mg/kg/injection, schedule: Q04DX002 (ip), vehicle: saline with Tween-80",0 of 3
CC(=O)[O][Pb]([CH2]CC(C)C)([CH2]CC(C)C)[CH2]CC(C)C,survivor count,"dose: 3.12 mg/kg/injection, schedule: Q01DX009 (ip), vehicle: saline with Tween-80",6 of 6
same,survivor count,"dose: 3.12 mg/kg/injection, schedule: Q04DX002 (ip), vehicle: saline with Tween-80",0 of 3
same,survivor count,"dose: 4.6 mg/kg/injection, schedule: Q01DX009 (ip), vehicle: saline with Tween-80",5 of 6
same,survivor count,"dose: 6.25 mg/kg/injection, schedule: Q04DX002 (ip), vehicle: saline with Tween-80",1 of 3
same,survivor count,"dose: 7.0 mg/kg/injection, schedule: Q01DX009 (ip), vehicle: saline with Tween-80",0 of 6
same,survivor count,"dose: 10.0 mg/kg/injection, schedule: Q01DX009 (ip), vehicle: saline with Tween-80",1 of 6
same,survivor count,"dose: 12.5 mg/kg/injection, schedule: Q04DX002 (ip), vehicle: saline with Tween-80",1 of 3
same,survivor count,"dose: 100.0 mg/kg/injection, schedule: Q04DX002 (ip), vehicle: saline",1 of 3
same,survivor count,"dose: 200.0 mg/kg/injection, schedule: Q04DX002 (ip), vehicle: saline",0 of 3
same,survivor count,"dose: 400.0 mg/kg/injection, schedule: Q04DX002 (ip), vehicle: saline",2 of 3
O=CNc1ccc2c(c1)Cc1cc(Cl)ccc1-2,survivor count,"dose: 240.0 mg/kg/injection, schedule: Q01DX015 (ip), vehicle: carboxymethylcellulose (CMC)",2 of 6
Oc1ccc(O)c2[nH]c(-c3ccccc3)cc12,survivor count,[3],0 of 3 and 0 of 4
same,survivor count,"dose: 50.0 mg/kg/injection, schedule: Q04DX002 (ip), vehicle: saline with Tween-80",0 of 3
same,survivor count,[4],0 of 3
CC(=O)N(C)c1cc([N+](=O)[O-])ccc1OCc1ccccc1,survivor count,[1],3 of 6
same,survivor count,[2],0 of 6
O=C(N/N=C/c1ccncc1)c1ccccc1,survivor count,"dose: 400.0 mg/kg/injection, schedule: Q01DX009 (ip), vehicle: saline",3 of 6
Cc1ccc(N(CCO)CCO)cc1,survivor count,[1],0 of 4
same,survivor count,[2],0 of 4
CCOC(=O)N1CCN(C(=S)[S-])CC1.CCOC(=O)N1CCN(C(=S)[S-])CC1.[Zn],survivor count,"dose: 75.0 mg/kg/injection, schedule: Q01DX001 (ip), vehicle: saline",6 of 6
C=NC,survivor count,[1],5 of 6
same,survivor count,"dose: 200.0 mg/kg/injection, schedule: Q04DX003 (ip), vehicle: saline",3 of 6
same,survivor count,[2],0 of 6
same,survivor count,"dose: 400.0 mg/kg/injection, schedule: Q04DX003 (ip), vehicle: saline",0 of 6
COc1ccc(NC(=O)c2c(Br)c(Br)c(Br)c(Br)c2C(=O)O)c(Cl)c1,survivor count,"dose: 400.0 mg/kg/injection, schedule: Q01DX009 (ip), vehicle: Klucel (hydroxypropylcellulose) (HPC)",2 of 6
